Results published in patent US12102089B2, “Method for inactivating mold spores” (DSM IP ASSETS B.V., priority 2017, dated 2024).
This continues a long series; more values of the same kind are listed elsewhere.

Tested on: Paecilomyces variotti (ATCC 22319)
Experiment: Heat treatment of Paecilomyces variotti spores in ice tea with natamycin, visual growth
Type: cell-based
Design: key: growth (+); no growth (−)
Description: Commercially available ice tea (Lipton, peach flavor, non-carbonated, 1.5 L) was adjusted to high water hardness by adding 1 ml of a solution of 39 g CaCl2 and 27 g MgCl2 added to 934 g water. ⅓ of this ice tea preparation (the pH of which was 3.15) was left as-such, ⅓ of the preparation was enriched with 5 ppm natamycin and ⅓ of the preparation was enriched with 10 ppm natamycin. Samples of 5 ml were made from each preparation in 15 ml sterile plastic tubes. Of each preparation 8 samples were pre-heated to the desired pasteurization temperature using a water bath. Temperatures used were RT, 60, 65, 70, 75, 80, 85 and 90° C. When the desired temperature was reached, 100 μl of a 2500 spores/ml spore suspension of Aspergillus niger ATCC 9029AA was added to each tube. Subsequently, the samples were kept for 30 seconds at the temperature in question in the water bath. Next, the samples were cooled on ice to a temperature of 25° C. Samples were incubated at 25° C. and visually examined for growth (formation of mold flakes or turbidity) for two months. Additionally, samples were enumerated according to ISO protocol 21527-1.2008 on day 0 (before heat treatment) and day 1 (after heat treatment) to count immediate loss of viability. […] For the results, see Table 1. […] Example 1 was repeated however with Paecilomyces variotti (ATCC 22319, 1000 spores/ml) instead of Aspergillus niger.

SMILES: C[C@@H]1C/C=C/C=C/C=C/C=C/[C@H](O[C@@H]2O[C@H](C)[C@@H](O)[C@H](N)[C@@H]2O)C[C@@H]2O[C@](O)(C[C@@H](O)C[C@H]3O[C@@H]3/C=C/C(=O)O1)C[C@H](O)[C@H]2C(=O)O [natamycin]
- growth (+) or no growth (−) (T 85, natamycin 5 ppm, day 15): −
- growth (+) or no growth (−) (T 85, natamycin 5 ppm, day 16): −
- growth (+) or no growth (−) (T 85, natamycin 5 ppm, day 17): −
- growth (+) or no growth (−) (T 85, natamycin 5 ppm, day 50): −
- growth (+) or no growth (−) (T 85, natamycin 10 ppm, day 1): −
- growth (+) or no growth (−) (T 85, natamycin 10 ppm, day 2): −
- growth (+) or no growth (−) (T 85, natamycin 10 ppm, day 3): −
- growth (+) or no growth (−) (T 85, natamycin 10 ppm, day 4): −
- growth (+) or no growth (−) (T 85, natamycin 10 ppm, day 5): −
- growth (+) or no growth (−) (T 85, natamycin 10 ppm, day 6): −
- growth (+) or no growth (−) (T 85, natamycin 10 ppm, day 7): −
- growth (+) or no growth (−) (T 85, natamycin 10 ppm, day 8): −
- growth (+) or no growth (−) (T 85, natamycin 10 ppm, day 9): −
- growth (+) or no growth (−) (T 85, natamycin 10 ppm, day 10): −
- growth (+) or no growth (−) (T 85, natamycin 10 ppm, day 11): −
- growth (+) or no growth (−) (T 85, natamycin 10 ppm, day 12): −
- growth (+) or no growth (−) (T 85, natamycin 10 ppm, day 13): −
- growth (+) or no growth (−) (T 85, natamycin 10 ppm, day 14): −
- growth (+) or no growth (−) (T 85, natamycin 10 ppm, day 15): −
- growth (+) or no growth (−) (T 85, natamycin 10 ppm, day 16): −
- growth (+) or no growth (−) (T 85, natamycin 10 ppm, day 17): −
- growth (+) or no growth (−) (T 85, natamycin 10 ppm, day 50): −
- growth (+) or no growth (−) (T 90, natamycin 5 ppm, day 1): −
- growth (+) or no growth (−) (T 90, natamycin 5 ppm, day 2): −
- growth (+) or no growth (−) (T 90, natamycin 5 ppm, day 3): −
- growth (+) or no growth (−) (T 90, natamycin 5 ppm, day 4): −
- growth (+) or no growth (−) (T 90, natamycin 5 ppm, day 5): −
- growth (+) or no growth (−) (T 90, natamycin 5 ppm, day 6): −
- growth (+) or no growth (−) (T 90, natamycin 5 ppm, day 7): −
- growth (+) or no growth (−) (T 90, natamycin 5 ppm, day 8): −
- growth (+) or no growth (−) (T 90, natamycin 5 ppm, day 9): −
- growth (+) or no growth (−) (T 90, natamycin 5 ppm, day 10): −
- growth (+) or no growth (−) (T 90, natamycin 5 ppm, day 11): −
- growth (+) or no growth (−) (T 90, natamycin 5 ppm, day 12): −
- growth (+) or no growth (−) (T 90, natamycin 5 ppm, day 13): −
- growth (+) or no growth (−) (T 90, natamycin 5 ppm, day 14): −
- growth (+) or no growth (−) (T 90, natamycin 5 ppm, day 15): −
- growth (+) or no growth (−) (T 90, natamycin 5 ppm, day 16): −
- growth (+) or no growth (−) (T 90, natamycin 5 ppm, day 17): −
- growth (+) or no growth (−) (T 90, natamycin 5 ppm, day 50): −
- growth (+) or no growth (−) (T 90, natamycin 10 ppm, day 1): −
- growth (+) or no growth (−) (T 90, natamycin 10 ppm, day 2): −
- growth (+) or no growth (−) (T 90, natamycin 10 ppm, day 3): −
- growth (+) or no growth (−) (T 90, natamycin 10 ppm, day 4): −
- growth (+) or no growth (−) (T 90, natamycin 10 ppm, day 5): −
- growth (+) or no growth (−) (T 90, natamycin 10 ppm, day 6): −
- growth (+) or no growth (−) (T 90, natamycin 10 ppm, day 7): −
- growth (+) or no growth (−) (T 90, natamycin 10 ppm, day 8): −
- growth (+) or no growth (−) (T 90, natamycin 10 ppm, day 9): −
- growth (+) or no growth (−) (T 90, natamycin 10 ppm, day 10): −
- growth (+) or no growth (−) (T 90, natamycin 10 ppm, day 11): −
- growth (+) or no growth (−) (T 90, natamycin 10 ppm, day 12): −
- growth (+) or no growth (−) (T 90, natamycin 10 ppm, day 13): −
- growth (+) or no growth (−) (T 90, natamycin 10 ppm, day 14): −
- growth (+) or no growth (−) (T 90, natamycin 10 ppm, day 15): −
- growth (+) or no growth (−) (T 90, natamycin 10 ppm, day 16): −
- growth (+) or no growth (−) (T 90, natamycin 10 ppm, day 17): −
- growth (+) or no growth (−) (T 90, natamycin 10 ppm, day 50): −
- growth (+) or no growth (−) (T RT, natamycin 5 ppm, day 1): −
- growth (+) or no growth (−) (T RT, natamycin 5 ppm, day 2): −
- growth (+) or no growth (−) (T RT, natamycin 5 ppm, day 3): −
- growth (+) or no growth (−) (T RT, natamycin 5 ppm, day 4): −
- growth (+) or no growth (−) (T RT, natamycin 5 ppm, day 5): −
- growth (+) or no growth (−) (T RT, natamycin 5 ppm, day 6): −
- growth (+) or no growth (−) (T RT, natamycin 5 ppm, day 7): −
- growth (+) or no growth (−) (T RT, natamycin 5 ppm, day 8): −
- growth (+) or no growth (−) (T RT, natamycin 5 ppm, day 9): −
- growth (+) or no growth (−) (T RT, natamycin 5 ppm, day 10): +
- growth (+) or no growth (−) (T RT, natamycin 5 ppm, day 11): +
- growth (+) or no growth (−) (T RT, natamycin 5 ppm, day 12): +
- growth (+) or no growth (−) (T RT, natamycin 5 ppm, day 13): +
- growth (+) or no growth (−) (T RT, natamycin 5 ppm, day 14): +
- growth (+) or no growth (−) (T RT, natamycin 5 ppm, day 15): +
- growth (+) or no growth (−) (T RT, natamycin 5 ppm, day 16): +
- growth (+) or no growth (−) (T RT, natamycin 5 ppm, day 17): +
- growth (+) or no growth (−) (T RT, natamycin 5 ppm, day 50): +
- growth (+) or no growth (−) (T RT, natamycin 10 ppm, day 1): −
- growth (+) or no growth (−) (T RT, natamycin 10 ppm, day 2): −
- growth (+) or no growth (−) (T RT, natamycin 10 ppm, day 3): −
- growth (+) or no growth (−) (T RT, natamycin 10 ppm, day 4): −
- growth (+) or no growth (−) (T RT, natamycin 10 ppm, day 5): −
- growth (+) or no growth (−) (T RT, natamycin 10 ppm, day 6): −
- growth (+) or no growth (−) (T RT, natamycin 10 ppm, day 7): −
- growth (+) or no growth (−) (T RT, natamycin 10 ppm, day 8): −
- growth (+) or no growth (−) (T RT, natamycin 10 ppm, day 9): −
- growth (+) or no growth (−) (T RT, natamycin 10 ppm, day 10): −
- growth (+) or no growth (−) (T RT, natamycin 10 ppm, day 11): +
- growth (+) or no growth (−) (T RT, natamycin 10 ppm, day 12): +
- growth (+) or no growth (−) (T RT, natamycin 10 ppm, day 13): +
- growth (+) or no growth (−) (T RT, natamycin 10 ppm, day 14): +
- growth (+) or no growth (−) (T RT, natamycin 10 ppm, day 15): +
- growth (+) or no growth (−) (T RT, natamycin 10 ppm, day 16): +
- growth (+) or no growth (−) (T RT, natamycin 10 ppm, day 17): +
- growth (+) or no growth (−) (T RT, natamycin 10 ppm, day 50): +
